# Screen size: about 320,000 compounds; about 22,000 (6.9%) were called active. The shares of active, inactive and inconclusive entries below differ from those in the screen. Calls follow the shape of the dose curve; as a rule, active = well fitted inhibition curve with a large enough effect; inconclusive = small, poorly fitted or top-dose-only effect, or another doubt; inactive = no such curve, though single readings can be large or run the other way. Where the call is inconclusive, the potency comes from a doubtful curve fit.
# Experiment: Primary qHTS for delayed death inhibitors of the malarial parasite plastid, 96 hour incubation
# Details: P. falciparum luciferase reporter growth; series mostly up to 28.7 µM
# Procedure, shortened: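 Two-generation exposure (96 h) targets delayed-death phenotype. Reporter parasites carrying integrated firefly luciferase, in red cells at 2% hematocrit and 0.05% parasitemia final, kept at 37 C, 5% CO2; luminescence loss indicates inhibition.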
# Potency is read from the fitted curve at half-maximal effect.
row,SMILES,Potency
1,C=CCn1c(C(C)NC(=O)COC)nc2ccccc21 (stereo not drawn),inactive
2,Nc1nc(C2CC2)c(Sc2sc(N)nc2C2CC2)s1,"inconclusive: 9.28 µM [inhibitor, partial curve, poor fit]"
3,COc1ccc(/C(C)=N/OC/C(O)=C(\C#N)c2nc3ccccc3[nH]2)cc1,"inconclusive: 14.7 µM [inhibitor, single point]"
4,CCN1CCN(CCC(=O)Nc2cc(OC)ccc2OC)CC1,"inconclusive: 18.5 µM [inhibitor, single point]"
5,Cc1cc2nc(-c3ccc(SCc4ccc(C(=O)O)cc4)nc3)[nH]c2cc1C,inactive
6,COc1ccc(/C=C/C(=O)O)cc1S(=O)(=O)N1CCCC1,active: 5.86 µM
7,CC1(C)CC(=O)C(=Cc2cn(-c3ccccc3)nc2-c2ccc(Cl)cc2)C(=O)C1,"inconclusive: 0.131 µM [inhibitor, full curve]"
8,Cc1ccc2cccc(Oc3ncnc4sc(C)c(C)c34)c2n1,"inconclusive: 4.15 µM [inhibitor, single point]"
9,CC1CN(C(=S)SCC(=O)c2ccc(Cl)cc2)CC(C)O1 (stereo not drawn),inactive
10,O=C(CCCOc1ccc(Cl)cc1Cl)N/N=C/c1ccccc1,inactive
11,CC(=O)Nc1nc2c(ccc3ccccc32)s1,active: 10.4 µM
12,COc1ccc(-c2cc(C(=O)Nc3cc(Cl)ccc3OC)no2)cc1,inactive
13,O=C(COc1cccc2c1CCN(Cc1ccccc1)C2=O)NCc1ccco1,inactive
14,Cc1cc(C)c(NC(=O)CNC(=O)COC(=O)Cc2cccs2)c(C)c1,inactive
15,Cc1cc(Nc2ccc3c(c2)OCCO3)c2cccc(C)c2n1,"inconclusive: 18.5 µM [inhibitor, single point]"
16,Cc1ccc(-c2cc(-c3cccs3)[nH]n2)c(O)c1,"inconclusive: 18.5 µM [inhibitor, single point]"
17,Cc1ccc2nc(/N=C(\N)NC(=O)NC3CCCCC3)nc(C)c2c1,"inconclusive: 0.928 µM [inhibitor, partial curve, poor fit]"
18,COc1ccc(Br)cc1C(=O)Nc1ccc(Cc2ccncc2)cc1,"inconclusive: 8.28 µM [inhibitor, partial curve, poor fit]"
19,CC(C)Cn1cc(C(=O)NCC2CCCO2)c2c3ccccc3n(C)c2c1=O (stereo not drawn),inactive
20,CC1=C(C(=O)Nc2cccc(C(=O)NC3CCCC(C)C3C)c2)SCCO1 (stereo not drawn),"inconclusive: 18.5 µM [inhibitor, single point]"
21,O=C(Nc1ccccc1)OCC(CN1CCCCC1)OC(=O)Nc1ccccc1 (stereo not drawn),"inconclusive: 18.5 µM [inhibitor, partial curve, poor fit]"
22,Nc1c(C(=O)Nc2ccc3c(c2)OCCO3)nnn1Cc1ccc(Cl)cc1,inactive
23,NCCc1nnc(SCc2c(Cl)cccc2Cl)o1,inactive
24,O=C(COC(=O)/C=C/c1ccccc1)NNC(=O)c1ccc([N+](=O)[O-])cc1,inactive
25,O=C(Nc1ccc(-c2nc3ccccc3[nH]2)cc1)c1ccc2c(c1)OCO2,active: 5.22 µM

row,SMILES,Potency
1,CC(C)=C1C2CCC1C1C(=O)N(CCc3ccccc3)C(=O)C21 (stereo not drawn),"inconclusive: 13.1 µM [inhibitor, partial curve]"
2,Cc1ccc2c(c1)Oc1ccc(NC(=O)CCl)cc1C(=O)N2,"inconclusive: 0.37 µM [inhibitor, full curve, poor fit]"
3,CCC(C(=O)N1CCN(C(=O)c2ccco2)CC1)c1ccccc1 (stereo not drawn),"inconclusive: 2.33 µM [inhibitor, full curve, poor fit]"
4,CCn1nc(NS(=O)(=O)c2ccc(NC(C)=O)cc2)c2cc3cc(C)ccc3nc21,"inconclusive: 18.5 µM [inhibitor, single point]"
5,C=CCNc1nc(NC(C)(C)CO)nc(OCC)n1,active: 7.38 µM
6,CCOC(=O)Cn1c(=N)n(CCOc2cccc(C)c2)c2ccccc21,"inconclusive: 0.104 µM [inhibitor, full curve, poor fit]"
7,O=C(COC(=O)c1ccc(O)cc1)NCC1COc2ccccc2O1 (stereo not drawn),"inconclusive: 5.86 µM [inhibitor, partial curve]"
8,O=C(NCCc1ccc(Cl)cc1)C1CCN(C(=O)c2sccc2-n2cccc2)CC1,inactive
9,CCC(C)N(C(=O)CSc1nnc(COc2ccccc2F)n1N)C1CCS(=O)(=O)C1 (stereo not drawn),inactive
10,COc1ccc(-c2cc(C(=O)N(C)CC(=O)Nc3cccc(F)c3)c3ccccc3n2)cc1,"inconclusive: 9.28 µM [inhibitor, single point]"
11,Clc1ccc(-c2nc3cnccn3c2NC2CCCC2)cc1,inactive
12,Cc1ccc(CNC(=O)c2ccc(Cl)c(S(=O)(=O)N3CCCCC3)c2)cc1,"inconclusive: 18.5 µM [inhibitor, single point]"
13,COC(=O)Cc1c(C)nc2nc(-c3ccc(C)cc3)[nH]n2c1=O,inactive
14,CCOc1ccc(S(=O)(=O)N2CCC(C(=O)NCc3ccccc3CN3CCCC3)CC2)cc1,active: 13.1 µM
15,O=C(N/C(=C/c1cccc([N+](=O)[O-])c1)C(=O)N1CCCCCC1)c1ccco1,"inconclusive: 8.28 µM [inhibitor, partial curve]"
16,O=C(Cn1nnc(-c2ccccc2F)n1)Nc1cccc2ncccc12,"inconclusive: 11.7 µM [inhibitor, single point]"
17,CC12CCC(=O)N1C(C(=O)Nc1nc(-c3ccc(F)cc3)cs1)CS2 (stereo not drawn),inactive
18,O=[N+]([O-])c1ccc(COc2cccc(CNc3ccc(Br)cc3)c2)cc1,"inconclusive: 18.5 µM [inhibitor, single point]"
19,COc1ccc(NC(=O)C2CCCN(c3nccc(C)n3)C2)cc1 (stereo not drawn),active: 10.4 µM
20,CC(C)OC(=O)CSc1nc2ccccc2s1,"inconclusive: 18.5 µM [inhibitor, single point]"
21,O=C(C1=C(O)C(=O)N(CCc2ccccc2)C1c1ccncc1)c1cc2ccccc2o1 (stereo not drawn),inactive
22,COc1ccc(NC(=O)c2ccc(C)cc2)c[n+]1[O-],inactive
23,CN(C)CCNc1nc2c(c(=O)[nH]c(=O)n2C)n1CCOc1ccccc1,inactive
24,Cc1[nH]c2ccc(F)cc2c1CCN(Cc1ccncc1)C(=S)Nc1ccc(F)cc1,"inconclusive: 11.7 µM [inhibitor, single point]"
25,CC(C)[C@H](CO)Nc1nc(NCc2ccc(S(N)(=O)=O)cc2)c2ncn(C(C)C)c2n1,"inconclusive: 10.4 µM [inhibitor, partial curve, poor fit]"

# A different layout for 4 compounds above.
row	SMILES	Potency
6	COc1ccc(/C=C/C(=O)O)cc1S(=O)(=O)N1CCCC1	active: 5.86 µM
15	Cc1cc(Nc2ccc3c(c2)OCCO3)c2cccc(C)c2n1	inconclusive: 18.5 µM [inhibitor, single point]
5	C=CCNc1nc(NC(C)(C)CO)nc(OCC)n1	active: 7.38 µM
20	CC(C)OC(=O)CSc1nc2ccccc2s1	inconclusive: 18.5 µM [inhibitor, single point]

# (cont.)

row,SMILES,Potency
1,Cc1ccc(S(=O)(=O)N(CCC(=O)O)Cc2ccc(Cl)cc2)cc1,inactive
2,COc1cc(C=O)cc(Cl)c1OC(=O)N1CCOCC1,inactive
3,O=C(CSc1nnc(Cn2cnc3ccccc32)o1)Nc1cccc2ccccc12,"inconclusive: 4.15 µM [inhibitor, single point]"
4,Cc1cccc(NC(=O)c2ccc(NC(=O)CC3SC(N4CCCC4)=NC3=O)cc2)n1 (stereo not drawn),"inconclusive: 1.17 µM [inhibitor, full curve, poor fit]"
5,COc1ccc(S(=O)(=O)Cc2ccc(C(=O)NC3CCC(C)CC3)o2)cc1 (stereo not drawn),"inconclusive: 18.5 µM [inhibitor, single point]"
6,COc1cc(/C=C2/C(=N)N3N=C(CC(=O)N4CCOCC4)SC3=NC2=O)ccc1OCc1ccc(F)cc1,"inconclusive: 18.5 µM [inhibitor, single point]"
7,COc1ccc(OC)c(NC(=O)CNC(c2ccccc2)c2ccccc2)c1,active: 9.28 µM
8,COc1ccc(C2=NOC(COc3ccc4c(C)cc(=O)oc4c3)C2)c(OC)c1 (stereo not drawn),"inconclusive: 7.38 µM [inhibitor, partial curve, poor fit]"
9,CCC(C)NC(=O)Cn1c(=O)n(-c2ccccc2)c(=O)c2ccc(C(=O)NCc3ccco3)cc21 (stereo not drawn),"inconclusive: 13.1 µM [inhibitor, partial curve, poor fit]"
10,O=C(COC(=O)Cc1cccs1)Nc1ccc(OC(F)(F)F)cc1,inactive
11,CCOC(=O)c1c(C)[nH]c(C(=O)OC(C)C(=O)NCc2ccccc2)c1C (stereo not drawn),inactive
12,Cc1ccc(C)c(OCc2cc(C(=O)N3CCN(c4ccccc4)CC3)no2)c1,inactive
13,Cc1cc(C)c(NC(=O)c2ccc[n+](Cc3ccc([N+](=O)[O-])cc3)c2)c(C)c1,"inconclusive: 14.7 µM [inhibitor, partial curve, poor fit]"
14,Clc1nc(CN2CCCCC2)nc2sc3c(c12)CCC3,"inconclusive: 13.1 µM [inhibitor, partial curve, poor fit]"
15,CCCCOc1ccc(NC(=O)c2cnc(C)cn2)cc1,"inconclusive: 8.28 µM [inhibitor, partial curve, poor fit]"
16,CCOC(=O)c1c(C)[nH]c(C)c1S(=O)(=O)NC(CC)CN1CCOCC1 (stereo not drawn),inactive
17,Cc1n[nH]c(=O)c2c(NC(=O)CSc3nc4ccccc4c(=O)n3C(C)C)oc(C)c12,inactive
18,CCOC(=O)C(C)Sc1cc(CS(=O)(=O)c2ccccc2)nc(-c2ccccc2)n1 (stereo not drawn),active: 10.4 µM
19,Cc1cc(C)c2nc(NC(=O)c3cc(C)on3)sc2c1,inactive
20,CCc1ccc(NC(=O)C(CC)Sc2nc3cc4c(cc3c(=O)n2Cc2ccco2)OCO4)cc1 (stereo not drawn),active: 2.62 µM
21,O=C(Nc1ccccc1Br)c1ccc(OC(=S)N2CCOCC2)cc1,"inconclusive: 0.657 µM [inhibitor, full curve, poor fit]"
22,CCCCNS(=O)(=O)c1ccc2nc(SCC(=O)Nc3ccccc3Cl)[nH]c2c1,"inconclusive: 5.86 µM [inhibitor, partial curve, poor fit]"
23,COc1ccccc1NC(=O)C1C2C=CC(C2)C1C(=O)NCc1cccnc1 (stereo not drawn),"inconclusive: 10.4 µM [inhibitor, partial curve]"
